These are yes or no findings as the source states them, for the method shown. In cells and extracts the contact can be indirect. Some results given as binding are weak or reduced against the parent protein; the word gives no strength.

Amino acid sequences for entries named in this document (tags omitted). A change or cut given only in a name is not applied to a line headed by its entry.
UniProt P42227: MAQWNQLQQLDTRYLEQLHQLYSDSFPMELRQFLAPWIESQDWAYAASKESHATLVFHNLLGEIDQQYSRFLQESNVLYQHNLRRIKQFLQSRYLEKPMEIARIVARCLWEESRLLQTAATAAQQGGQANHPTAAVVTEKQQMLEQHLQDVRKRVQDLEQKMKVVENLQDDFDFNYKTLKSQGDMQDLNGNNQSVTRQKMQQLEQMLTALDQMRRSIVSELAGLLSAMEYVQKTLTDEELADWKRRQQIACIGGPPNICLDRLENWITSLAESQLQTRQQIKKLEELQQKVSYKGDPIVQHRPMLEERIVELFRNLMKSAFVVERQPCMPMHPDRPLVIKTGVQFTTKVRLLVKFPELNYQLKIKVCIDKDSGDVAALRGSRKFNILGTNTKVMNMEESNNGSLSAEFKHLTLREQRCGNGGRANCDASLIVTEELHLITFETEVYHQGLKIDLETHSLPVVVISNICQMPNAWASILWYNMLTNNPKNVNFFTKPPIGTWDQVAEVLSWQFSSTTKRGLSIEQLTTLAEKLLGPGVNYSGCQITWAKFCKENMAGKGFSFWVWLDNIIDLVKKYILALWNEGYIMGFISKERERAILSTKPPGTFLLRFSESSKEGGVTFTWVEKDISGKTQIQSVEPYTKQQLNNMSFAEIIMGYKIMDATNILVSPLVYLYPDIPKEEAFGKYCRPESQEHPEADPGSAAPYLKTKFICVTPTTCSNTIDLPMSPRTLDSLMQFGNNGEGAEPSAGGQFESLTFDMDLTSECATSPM
UniProt Q13485: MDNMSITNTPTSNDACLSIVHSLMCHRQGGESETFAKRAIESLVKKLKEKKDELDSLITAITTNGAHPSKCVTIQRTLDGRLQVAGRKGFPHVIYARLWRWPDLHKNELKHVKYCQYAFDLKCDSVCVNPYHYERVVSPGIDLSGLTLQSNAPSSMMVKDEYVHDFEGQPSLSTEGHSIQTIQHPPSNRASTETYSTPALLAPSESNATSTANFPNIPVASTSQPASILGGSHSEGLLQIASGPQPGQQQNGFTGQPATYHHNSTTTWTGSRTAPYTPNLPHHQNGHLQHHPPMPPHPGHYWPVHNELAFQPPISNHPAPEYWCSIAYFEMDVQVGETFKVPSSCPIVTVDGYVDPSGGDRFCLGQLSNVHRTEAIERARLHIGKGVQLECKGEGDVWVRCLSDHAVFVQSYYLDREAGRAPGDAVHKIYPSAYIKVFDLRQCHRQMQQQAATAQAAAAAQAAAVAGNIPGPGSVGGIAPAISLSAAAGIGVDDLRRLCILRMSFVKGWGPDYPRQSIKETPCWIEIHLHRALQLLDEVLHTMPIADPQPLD
UniProt Q15796: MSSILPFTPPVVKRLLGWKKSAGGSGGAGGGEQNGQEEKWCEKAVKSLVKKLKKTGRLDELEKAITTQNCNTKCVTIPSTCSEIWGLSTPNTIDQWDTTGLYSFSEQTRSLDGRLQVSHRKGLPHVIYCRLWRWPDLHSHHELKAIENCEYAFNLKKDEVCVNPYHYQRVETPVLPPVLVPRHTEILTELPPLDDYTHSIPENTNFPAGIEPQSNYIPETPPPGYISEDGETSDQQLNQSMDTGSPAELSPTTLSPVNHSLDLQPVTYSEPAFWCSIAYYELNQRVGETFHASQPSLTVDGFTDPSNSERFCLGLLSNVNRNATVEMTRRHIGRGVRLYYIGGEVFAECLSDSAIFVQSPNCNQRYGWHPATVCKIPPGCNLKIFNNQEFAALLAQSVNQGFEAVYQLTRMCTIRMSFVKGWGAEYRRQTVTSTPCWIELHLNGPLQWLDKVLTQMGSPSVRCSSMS
UniProt Q62432: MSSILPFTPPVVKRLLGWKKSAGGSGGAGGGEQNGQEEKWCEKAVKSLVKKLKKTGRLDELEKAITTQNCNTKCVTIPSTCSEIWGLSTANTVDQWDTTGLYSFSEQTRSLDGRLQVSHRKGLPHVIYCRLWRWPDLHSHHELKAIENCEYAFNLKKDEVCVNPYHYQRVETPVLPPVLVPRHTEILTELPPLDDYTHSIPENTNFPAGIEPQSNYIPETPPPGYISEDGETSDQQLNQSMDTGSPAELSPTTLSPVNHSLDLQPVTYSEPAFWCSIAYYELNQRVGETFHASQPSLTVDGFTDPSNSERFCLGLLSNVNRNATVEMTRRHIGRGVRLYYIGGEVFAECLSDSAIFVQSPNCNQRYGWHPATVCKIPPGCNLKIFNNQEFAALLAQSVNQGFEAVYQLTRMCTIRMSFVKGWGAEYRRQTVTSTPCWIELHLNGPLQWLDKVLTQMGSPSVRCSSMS
UniProt P40763: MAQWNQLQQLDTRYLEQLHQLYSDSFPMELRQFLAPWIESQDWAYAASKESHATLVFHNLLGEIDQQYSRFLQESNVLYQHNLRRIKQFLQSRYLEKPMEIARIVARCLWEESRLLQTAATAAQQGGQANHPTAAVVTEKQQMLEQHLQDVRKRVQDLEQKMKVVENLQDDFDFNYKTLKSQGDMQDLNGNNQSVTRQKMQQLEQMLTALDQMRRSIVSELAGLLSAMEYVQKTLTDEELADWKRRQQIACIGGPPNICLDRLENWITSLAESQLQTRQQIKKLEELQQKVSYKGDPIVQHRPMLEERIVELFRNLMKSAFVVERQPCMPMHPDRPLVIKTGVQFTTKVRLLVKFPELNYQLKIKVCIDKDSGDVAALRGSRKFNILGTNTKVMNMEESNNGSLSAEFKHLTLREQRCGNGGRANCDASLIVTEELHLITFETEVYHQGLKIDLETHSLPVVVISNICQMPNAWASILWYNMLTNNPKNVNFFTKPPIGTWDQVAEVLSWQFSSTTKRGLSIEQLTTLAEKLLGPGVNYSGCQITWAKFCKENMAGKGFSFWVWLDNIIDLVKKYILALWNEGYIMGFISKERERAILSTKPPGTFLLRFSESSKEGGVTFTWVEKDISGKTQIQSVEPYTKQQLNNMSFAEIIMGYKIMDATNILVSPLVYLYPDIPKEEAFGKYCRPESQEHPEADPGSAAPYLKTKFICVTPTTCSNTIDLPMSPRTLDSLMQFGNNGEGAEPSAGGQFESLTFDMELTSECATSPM

Drawing on PMC12234153, this text covers binding for seven substances.

For assay [1], the target named is STAT3-FLAG (wild type) (mouse) (UniProt P42227). The assay can be described thus: co-IP; DHHC7 KO HEK293T cells transfected with WT or catalytically inactive (MUT) DHHC7 and the indicated SMAD2 and STAT3 constructs; anti-FLAG pull-down of STAT3 (Fig. 5C) or SMAD2 (Fig. 5D), blot with anti-HA.
A further assay deals with SMAD4-FLAG (human) (UniProt Q13485). Kind of assay: co-IP; DHHC7 KO HEK293T cells transfected with WT or catalytically inactive (MUT) DHHC7-HA and the indicated SMAD2-HA and SMAD4-FLAG constructs; which protein was precipitated not given.
For assay [2], the target named is SMAD2-HA (wild type) (human) (UniProt Q15796). The assay can be described thus: co-IP; HEK293T cells transfected with HA-tagged SMAD2 and FLAG-tagged STAT3 constructs, untreated or treated with TGFb (3 ng/mL) for 6 hours; anti-HA pull-down of SMAD2, blot with anti-FLAG.
Assay [3] concerns the target SMAD2-FLAG S255A mutant (human) (UniProt Q15796). Kind of assay: co-IP; HEK293T cells transfected with WT STAT3-HA and WT or linker-region mutant SMAD2-FLAG; anti-FLAG pull-down of SMAD2, blot with anti-HA.
Assay [4] has as its target SMAD2-FLAG (wild type) (human) (UniProt Q15796). Described as above.
In assay [5] the target is SMAD2-FLAG C41S/C81S mutant (human) (UniProt Q15796). Kind of assay: co-IP; DHHC7 KO HEK293T cells transfected with WT or catalytically inactive (MUT) DHHC7 and the indicated SMAD2 and STAT3 constructs; anti-FLAG pull-down of STAT3 (Fig. 5C) or SMAD2 (Fig. 5D), blot with anti-HA.
Assay [6] has as its target SMAD2-FLAG (wild type) (human) (UniProt Q15796). The assay is described as above.
For assay [7] the target is unchanged. Kind of assay: co-IP; HEK293T cells transfected with SMAD2-FLAG, untreated or treated with 25 uM ML349 for 12 hours; anti-FLAG pull-down of SMAD2, blot with anti-STAT3 (endogenous STAT3).
Assay [8] has as its target SMAD2-FLAG overexpressed in mouse splenocytes (human) (UniProt Q15796). Kind of assay: co-IP; splenocytes of WT and DHHC7 KO mice overexpressing SMAD2-FLAG; anti-FLAG pull-down of SMAD2, blot with anti-STAT3 (endogenous STAT3).
Assay [9] addresses endogenous SMAD2 (mouse splenocytes) (mouse (endogenous in splenocytes)) (UniProt Q62432). Kind of assay: co-IP; WT and APT2 KO mouse splenocytes, without or with TGFb; anti-SMAD2 pull-down, blot with anti-STAT3 (both endogenous).

“SMAD2-HA (wild type) (from UniProt Q15796 1-467)”: in assay [1], the binding entry is recorded as “binds”. With “SMAD2-HA C41S/C81S mutant (from UniProt Q15796 1-467)”, the binding result (with SMAD4-FLAG (human); in assay [1]) was “binds” in each case. Consider “STAT3-FLAG (wild type) (from UniProt P42227 1-770)”, for which, in [2], the binding result is on record as “binds”. With “STAT3-FLAG C108S mutant (from UniProt P42227 1-770)”, the binding entry in assay [2] was “binds”.

As for “STAT3-HA (wild type) (from UniProt P42227 1-770)”, the binding result in [3], in assay [4], in [5] and in assay [6] was “binds” throughout. “endogenous STAT3 (HEK293T) (from UniProt P40763 1-770)”: the binding result in assay [7] is given as “binds”. “endogenous STAT3 (mouse splenocytes) (from UniProt P42227 1-770)”: the binding result in assay [8] and in assay [9] was “binds” in each case.
